{"source": "paper PMC8584931", "about": "(International Journal of Molecular Sciences, 2021)", "test_system": "HT-29 cells", "assay": "cells", "conditions": "Homo sapiens, HT-29, 48 h, read-out: HT-29 IV (intermediate value)", "description": "Cell viability was evaluated by MTT assay.\nIt is necessary for this IV to have a method of comparison for the combination of experiments.\nHuman colorectal cancer HT-29 and prostate cancer PC-3 cell lines were obtained from the American Type Culture Collection (ATCC; Manassas, VA, USA) and maintained according to ATCC’s recommendations at 37 °C and 5% CO2 in appropriate medium supplemented with 10% foetal bovine serum, 100 U/mL penicillin G and 100 µg/mL streptomycin. Cells were maintained in the logarithmic growth phase at all times. The media were changed every 2 days and trypsinised with 0.25% trypsin–EDTA. A total of 100 µL of HT-29 cells (7500 cells/well) or PC-3 cells (5000 cells/well) were seeded in 96-well plates and allowed to adhere overnight before drug exposure. After 24 h, the cell culture media were replaced with 100 µL of drug-containing media. […]\nThe IV value was first determined for each drug alone in HT-29 and PC-3 cells. […] Both Drug A and Drug B concentrations were variable, and the combined effects of equipotent concentrations (fixed ratio) of the IV values for each drug were evaluated.\nFor the MTT protocol, after drug treatment, the cell medium was removed and 100 µL/well of MTT solution (0.5 mg/mL in PBS) was added. […] Absorbance was measured at 570 nm in an automated microplate reader (Tecan Infinite M200, Tecan Group Ltd., Männedorf, Switzerland). […]"}
{"smiles": "Clc1ccccc1C(c1ccccc1)(c1ccccc1)n1ccnc1", "note": "[Clotrimazole, clotrimazole]", "values": [{"measurement": "IC50", "result": 21.6, "unit": "µM"}]}
